The other results are listed elsewhere or left out.

The chains behind the UniProt entries cited, without tags or fusion partners. Where a name states a change or a piece, a line headed by the entry shows the natural chain unless it says otherwise.
UniProt Q4L180: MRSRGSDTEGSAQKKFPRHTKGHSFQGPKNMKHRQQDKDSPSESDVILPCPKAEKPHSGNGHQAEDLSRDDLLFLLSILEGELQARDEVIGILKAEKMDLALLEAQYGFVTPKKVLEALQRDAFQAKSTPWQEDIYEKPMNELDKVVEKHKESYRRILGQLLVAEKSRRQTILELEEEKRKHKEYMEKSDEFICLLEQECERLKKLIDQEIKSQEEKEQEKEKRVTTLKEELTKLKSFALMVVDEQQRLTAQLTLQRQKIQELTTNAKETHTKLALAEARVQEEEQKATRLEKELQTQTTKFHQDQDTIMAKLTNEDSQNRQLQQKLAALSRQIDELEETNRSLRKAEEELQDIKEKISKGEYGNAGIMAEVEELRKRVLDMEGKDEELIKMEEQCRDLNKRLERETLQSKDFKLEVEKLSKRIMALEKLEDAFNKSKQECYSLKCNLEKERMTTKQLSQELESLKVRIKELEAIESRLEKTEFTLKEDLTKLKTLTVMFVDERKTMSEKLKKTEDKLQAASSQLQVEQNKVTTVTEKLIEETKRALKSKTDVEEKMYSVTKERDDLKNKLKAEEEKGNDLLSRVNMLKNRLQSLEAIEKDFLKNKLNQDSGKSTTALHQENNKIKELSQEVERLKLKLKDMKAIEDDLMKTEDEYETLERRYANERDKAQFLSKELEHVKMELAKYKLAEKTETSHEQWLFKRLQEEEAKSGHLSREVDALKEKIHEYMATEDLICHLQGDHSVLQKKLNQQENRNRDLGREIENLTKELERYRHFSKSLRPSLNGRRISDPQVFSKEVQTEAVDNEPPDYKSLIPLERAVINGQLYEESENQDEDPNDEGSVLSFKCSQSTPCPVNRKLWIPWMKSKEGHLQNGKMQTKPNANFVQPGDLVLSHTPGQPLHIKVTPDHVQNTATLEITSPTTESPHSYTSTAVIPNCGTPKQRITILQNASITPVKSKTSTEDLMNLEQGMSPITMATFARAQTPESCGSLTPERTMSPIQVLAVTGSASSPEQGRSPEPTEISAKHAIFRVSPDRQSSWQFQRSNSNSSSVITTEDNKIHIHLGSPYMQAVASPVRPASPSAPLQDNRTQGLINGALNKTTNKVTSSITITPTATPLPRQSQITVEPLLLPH
UniProt P16591: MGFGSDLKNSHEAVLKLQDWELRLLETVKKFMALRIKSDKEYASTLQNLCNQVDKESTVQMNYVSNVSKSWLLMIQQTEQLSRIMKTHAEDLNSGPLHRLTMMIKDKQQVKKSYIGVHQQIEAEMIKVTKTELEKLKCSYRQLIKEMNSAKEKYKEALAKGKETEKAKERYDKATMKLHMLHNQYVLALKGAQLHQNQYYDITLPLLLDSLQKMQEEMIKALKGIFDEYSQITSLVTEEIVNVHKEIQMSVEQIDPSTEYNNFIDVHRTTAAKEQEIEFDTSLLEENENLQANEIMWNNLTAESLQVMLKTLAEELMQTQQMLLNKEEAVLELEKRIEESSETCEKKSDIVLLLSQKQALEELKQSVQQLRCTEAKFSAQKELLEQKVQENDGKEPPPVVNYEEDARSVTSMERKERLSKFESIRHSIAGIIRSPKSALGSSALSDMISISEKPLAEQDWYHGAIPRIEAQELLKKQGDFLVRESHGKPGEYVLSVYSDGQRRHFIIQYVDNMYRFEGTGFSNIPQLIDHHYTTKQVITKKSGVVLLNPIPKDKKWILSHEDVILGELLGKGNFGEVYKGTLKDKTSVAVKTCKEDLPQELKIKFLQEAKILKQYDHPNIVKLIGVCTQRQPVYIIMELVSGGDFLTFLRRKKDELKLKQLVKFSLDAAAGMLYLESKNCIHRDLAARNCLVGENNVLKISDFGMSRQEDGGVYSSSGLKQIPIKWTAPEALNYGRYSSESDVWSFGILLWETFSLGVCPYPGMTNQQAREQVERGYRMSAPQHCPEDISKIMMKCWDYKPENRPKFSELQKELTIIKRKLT
UniProt Q86XK2: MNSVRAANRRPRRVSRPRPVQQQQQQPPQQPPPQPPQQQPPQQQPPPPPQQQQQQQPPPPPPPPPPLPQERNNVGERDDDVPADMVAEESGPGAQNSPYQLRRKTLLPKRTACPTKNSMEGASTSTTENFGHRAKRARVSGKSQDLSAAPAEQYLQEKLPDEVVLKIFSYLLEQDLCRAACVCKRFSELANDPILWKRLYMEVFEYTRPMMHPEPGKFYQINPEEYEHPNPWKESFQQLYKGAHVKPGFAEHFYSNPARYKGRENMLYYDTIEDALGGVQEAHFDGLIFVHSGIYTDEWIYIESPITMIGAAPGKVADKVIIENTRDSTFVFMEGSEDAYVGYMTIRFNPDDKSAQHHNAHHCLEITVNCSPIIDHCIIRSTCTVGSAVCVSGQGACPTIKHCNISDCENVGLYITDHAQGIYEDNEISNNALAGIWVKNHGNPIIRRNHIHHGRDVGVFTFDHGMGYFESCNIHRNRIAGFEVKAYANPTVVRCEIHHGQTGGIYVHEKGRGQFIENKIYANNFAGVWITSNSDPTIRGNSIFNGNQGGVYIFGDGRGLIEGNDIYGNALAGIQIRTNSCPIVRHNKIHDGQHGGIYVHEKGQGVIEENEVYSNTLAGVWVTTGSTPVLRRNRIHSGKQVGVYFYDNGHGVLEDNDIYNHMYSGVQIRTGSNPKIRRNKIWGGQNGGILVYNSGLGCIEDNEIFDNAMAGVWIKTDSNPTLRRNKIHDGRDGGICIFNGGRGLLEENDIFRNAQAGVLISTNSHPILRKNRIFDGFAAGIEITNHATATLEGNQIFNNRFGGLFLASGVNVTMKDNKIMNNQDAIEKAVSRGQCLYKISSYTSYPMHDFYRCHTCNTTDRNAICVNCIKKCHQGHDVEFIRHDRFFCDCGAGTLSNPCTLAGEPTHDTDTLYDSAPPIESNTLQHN
UniProt Q96IV6: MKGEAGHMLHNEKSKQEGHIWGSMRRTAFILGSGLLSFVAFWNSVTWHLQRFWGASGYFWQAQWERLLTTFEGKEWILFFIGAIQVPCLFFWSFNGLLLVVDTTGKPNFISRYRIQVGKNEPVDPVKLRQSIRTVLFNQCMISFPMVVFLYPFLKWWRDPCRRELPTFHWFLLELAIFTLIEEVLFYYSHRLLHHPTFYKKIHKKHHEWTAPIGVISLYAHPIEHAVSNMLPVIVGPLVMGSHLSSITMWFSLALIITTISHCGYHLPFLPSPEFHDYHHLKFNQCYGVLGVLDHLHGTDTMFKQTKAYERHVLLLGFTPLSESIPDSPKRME
UniProt Q4VC44: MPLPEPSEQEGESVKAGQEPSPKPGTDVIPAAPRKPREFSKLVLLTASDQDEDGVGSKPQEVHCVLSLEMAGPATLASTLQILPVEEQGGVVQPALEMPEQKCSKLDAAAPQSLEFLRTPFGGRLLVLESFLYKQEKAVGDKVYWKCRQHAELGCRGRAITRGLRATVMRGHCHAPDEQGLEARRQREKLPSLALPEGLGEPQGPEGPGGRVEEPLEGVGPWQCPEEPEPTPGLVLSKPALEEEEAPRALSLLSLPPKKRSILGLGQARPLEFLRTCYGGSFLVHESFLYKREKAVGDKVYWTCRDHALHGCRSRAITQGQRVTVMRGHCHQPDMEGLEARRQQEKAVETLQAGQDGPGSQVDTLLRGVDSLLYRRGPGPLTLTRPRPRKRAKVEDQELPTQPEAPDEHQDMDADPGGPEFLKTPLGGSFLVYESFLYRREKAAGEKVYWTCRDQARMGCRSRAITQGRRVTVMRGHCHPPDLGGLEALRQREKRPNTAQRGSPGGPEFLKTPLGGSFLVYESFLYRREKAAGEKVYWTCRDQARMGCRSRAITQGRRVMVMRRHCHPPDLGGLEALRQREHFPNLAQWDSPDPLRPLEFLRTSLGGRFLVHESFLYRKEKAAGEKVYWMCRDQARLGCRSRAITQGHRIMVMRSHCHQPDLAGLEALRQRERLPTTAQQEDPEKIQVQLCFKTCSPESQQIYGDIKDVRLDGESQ
UniProt Q96AY3, whole entry, looked up: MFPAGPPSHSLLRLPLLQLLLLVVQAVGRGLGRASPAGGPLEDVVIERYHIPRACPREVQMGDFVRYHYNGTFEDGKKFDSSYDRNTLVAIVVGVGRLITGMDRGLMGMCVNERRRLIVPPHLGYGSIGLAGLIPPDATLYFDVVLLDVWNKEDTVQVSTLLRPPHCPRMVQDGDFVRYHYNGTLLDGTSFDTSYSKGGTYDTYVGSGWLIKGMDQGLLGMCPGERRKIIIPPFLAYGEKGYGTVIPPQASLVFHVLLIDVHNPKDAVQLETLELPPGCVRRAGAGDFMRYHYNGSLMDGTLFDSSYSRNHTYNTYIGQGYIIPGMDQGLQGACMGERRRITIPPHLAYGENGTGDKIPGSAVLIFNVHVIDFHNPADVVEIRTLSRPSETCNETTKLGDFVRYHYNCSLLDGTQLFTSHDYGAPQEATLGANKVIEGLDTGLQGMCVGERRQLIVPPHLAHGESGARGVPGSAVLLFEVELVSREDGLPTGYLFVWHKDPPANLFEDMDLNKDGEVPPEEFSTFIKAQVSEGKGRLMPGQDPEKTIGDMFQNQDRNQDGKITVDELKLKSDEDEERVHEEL
UniProt Q9Y2H6: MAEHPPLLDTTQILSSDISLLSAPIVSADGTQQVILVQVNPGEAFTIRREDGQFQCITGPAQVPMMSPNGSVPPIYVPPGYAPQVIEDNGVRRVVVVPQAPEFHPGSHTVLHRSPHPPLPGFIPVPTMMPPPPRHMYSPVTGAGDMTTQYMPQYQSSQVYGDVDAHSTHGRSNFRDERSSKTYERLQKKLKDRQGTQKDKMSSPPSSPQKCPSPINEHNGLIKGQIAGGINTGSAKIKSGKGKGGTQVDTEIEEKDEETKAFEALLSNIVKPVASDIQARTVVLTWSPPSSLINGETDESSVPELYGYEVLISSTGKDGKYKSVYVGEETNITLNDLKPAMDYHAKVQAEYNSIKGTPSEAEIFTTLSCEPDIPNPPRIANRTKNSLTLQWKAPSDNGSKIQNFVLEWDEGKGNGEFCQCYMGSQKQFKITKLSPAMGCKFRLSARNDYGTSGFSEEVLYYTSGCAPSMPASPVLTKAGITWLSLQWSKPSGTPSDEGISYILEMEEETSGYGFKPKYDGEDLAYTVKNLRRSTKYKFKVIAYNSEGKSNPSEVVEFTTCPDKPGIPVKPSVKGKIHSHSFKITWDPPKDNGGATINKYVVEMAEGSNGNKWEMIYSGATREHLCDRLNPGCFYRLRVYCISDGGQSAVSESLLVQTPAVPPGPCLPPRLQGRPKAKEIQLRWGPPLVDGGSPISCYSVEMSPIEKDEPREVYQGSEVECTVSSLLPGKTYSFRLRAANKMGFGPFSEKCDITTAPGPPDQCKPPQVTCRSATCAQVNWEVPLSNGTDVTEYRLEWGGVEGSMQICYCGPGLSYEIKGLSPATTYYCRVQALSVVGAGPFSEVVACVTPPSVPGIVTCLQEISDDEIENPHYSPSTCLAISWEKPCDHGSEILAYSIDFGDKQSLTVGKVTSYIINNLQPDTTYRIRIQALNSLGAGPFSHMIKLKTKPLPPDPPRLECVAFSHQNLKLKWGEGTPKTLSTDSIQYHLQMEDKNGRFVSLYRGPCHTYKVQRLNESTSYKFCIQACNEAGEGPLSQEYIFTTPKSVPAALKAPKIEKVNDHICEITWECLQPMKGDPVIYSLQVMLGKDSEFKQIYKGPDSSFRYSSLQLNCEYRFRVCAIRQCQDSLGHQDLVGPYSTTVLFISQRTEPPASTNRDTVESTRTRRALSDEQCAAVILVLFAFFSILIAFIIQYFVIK
UniProt Q9P0K8: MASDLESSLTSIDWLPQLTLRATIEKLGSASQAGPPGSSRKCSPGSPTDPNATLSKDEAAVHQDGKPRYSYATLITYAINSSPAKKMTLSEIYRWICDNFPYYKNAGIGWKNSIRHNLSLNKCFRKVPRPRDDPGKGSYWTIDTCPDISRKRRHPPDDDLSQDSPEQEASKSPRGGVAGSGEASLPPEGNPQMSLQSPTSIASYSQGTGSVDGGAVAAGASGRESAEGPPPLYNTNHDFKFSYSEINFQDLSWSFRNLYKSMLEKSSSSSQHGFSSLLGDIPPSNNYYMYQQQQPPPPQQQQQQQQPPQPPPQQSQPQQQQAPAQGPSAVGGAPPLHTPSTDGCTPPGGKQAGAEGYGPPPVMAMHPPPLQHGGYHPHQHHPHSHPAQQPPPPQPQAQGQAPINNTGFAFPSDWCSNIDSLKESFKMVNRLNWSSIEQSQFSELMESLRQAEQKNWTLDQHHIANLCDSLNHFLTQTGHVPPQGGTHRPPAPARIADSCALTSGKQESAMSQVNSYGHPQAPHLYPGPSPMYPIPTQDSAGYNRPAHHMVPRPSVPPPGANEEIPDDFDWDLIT
UniProt Q9Y324: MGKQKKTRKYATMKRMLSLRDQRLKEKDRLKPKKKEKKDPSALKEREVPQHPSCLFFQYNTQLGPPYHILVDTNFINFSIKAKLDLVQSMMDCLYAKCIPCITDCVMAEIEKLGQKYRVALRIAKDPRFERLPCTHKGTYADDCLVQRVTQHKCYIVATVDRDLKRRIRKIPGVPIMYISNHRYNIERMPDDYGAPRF

Compound in the first test: CC[C@@H]1C(=O)N(C)c2cnc(Nc3ccc(C(=O)N[C@H]4CC[C@H](N5CCN(CC6CC6)CC5)CC4)cc3OC)nc2N1C(C)C [volasertib]
Put plainly: log2 fold change, soluble protein after heating vs DMSO (PISA); higher = thermal stabilisation; K562 lysate, 10 uM; active = over 0.2 and 3.5 SD of the protein, either way, in both replicates (recomputed). Summed up: (§1)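 K562 pellets were dounce-homogenised in PBS pH 7.4 containing 1 mM MgCl2, and the crude extract, at 1 mg/mL protein, was exposed to 10 μM compound for 30 min. Aliquots were heated for 3 min across 48°C-58°C, pooled, brought to 0.5% NP-40 at 4°C and spun at 21,000xg for 90 min, with the supernatant taken as soluble protein. TMTpro 16plex LC-MS/MS with equalised channel sums quantified that protein. Values are log-two fold changes in thermal stability relative to solvent controls, taken from duplicates.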
With FILIP1L (UniProt Q4L180), the log2 fold change is inactive: 0.105.
On to FER isoform 3 (UniProt P16591), for which the log2 fold change was inactive: -0.07.
Still for that read-out and setting: under FOSL1 (UniProt P15407) stands inactive: 0.06.
Still for that read-out and setting: to FASTKD3 (UniProt Q14CZ7) belongs inactive: -0.354; to FBXO11 isoform 5 (UniProt Q86XK2), inactive: 0.106.
Still for that read-out and setting: to FBXO28 (UniProt Q9NVF7) belongs inactive: 0.012.
As for FMR1 isoform 9 (UniProt Q06787), the log2 fold change was inactive: -0.035.
On the same count and under the same terms, under FAT1 (UniProt Q14517) stands inactive: 0.025; under FAXDC2 (UniProt Q96IV6), inactive: 0.006; under FDPS, A0A087WVN4, inactive: -0.011.
For the target FIP1L1 isoform 3 (UniProt Q6UN15), the log2 fold change is inactive: 0.246.
Same read-out and setting: to FASN, A0A0U1RRG3 belongs inactive: -0.199; to FMNL2 isoform 3 (UniProt Q96PY5), inactive: -0.013; to FANCE (UniProt Q9HB96), inactive: -0.115.
FANCC (UniProt Q00597): the log2 fold change is inactive: 0.008.
On the same count and under the same terms, under FCHSD2 (UniProt O94868) stands inactive: 0.008; under FLYWCH1 isoform 3 (UniProt Q4VC44), inactive: 0.116.

Compound in another test: CCn1c(C(=O)N(C2CC2)C2CC2)cc2c3c(ncn3C)c(Nc3cc(C)n(C)n3)nc21
Described as above. In a few lines:
as §1
Regarding FILIP1L (UniProt Q4L180), the log2 fold change is inactive: -0.141.
Same read-out and setting: to FKBP10 (UniProt Q96AY3) belongs inactive: 0.081; to FBXL19 (UniProt Q6PCT2), inactive: -0.017.
Same read-out and setting: under FBXO11 isoform 5 (UniProt Q86XK2) stands inactive: 0.076.
Same read-out and setting: to FBXO28 (UniProt Q9NVF7) belongs inactive: 0.039.
As for FMR1 isoform 9 (UniProt Q06787), the log2 fold change was inactive: 0.225.
Same read-out and setting: to FAT1 (UniProt Q14517) belongs inactive: -0.344; to FNDC3A (UniProt Q9Y2H6), inactive: 0.044; to FCGR2B (UniProt P31994), inactive: 0.121.
Regarding FBXO33 (UniProt Q7Z6M2), the log2 fold change is inactive: -0.141.
Still for that read-out and setting: to FIP1L1 isoform 3 (UniProt Q6UN15) belongs inactive: -0.111; to FBXL4 (UniProt Q9UKA2), inactive: 0.059.
Take FMNL2 isoform 3 (UniProt Q96PY5): the log2 fold change was inactive: -0.103.
FANCC (UniProt Q00597): the log2 fold change is inactive: 0.042.
Same read-out and setting: to FNTA (UniProt H0YCW1) belongs inactive: -0.173.
The same measure, in the same setting: under FOXJ2 (UniProt Q9P0K8) stands inactive: 0.1.
Turning to FLYWCH1 isoform 3 (UniProt Q4VC44), the log2 fold change is inactive: 0.128.

Compound in a further test: CCn1cc(-c2ccnc3[nH]c(-c4cccc(CN(C)C)c4)cc23)c(-c2ccc(NC(=O)N(C)C)cc2)n1
The test is described as above. In a few lines: as §1
For the target FKBP10 (UniProt Q96AY3), the log2 fold change was inactive: -0.043.
FER isoform 3 (UniProt P16591): the log2 fold change is inactive: -0.016.
The same measure, in the same setting: under FOSL1 (UniProt P15407) stands inactive: -0.082; under FANCF (UniProt Q9NPI8), inactive: 0.298.
Turning to FBXO11 isoform 5 (UniProt Q86XK2), the log2 fold change was inactive: 0.058.
Regarding FAT1 (UniProt Q14517), the log2 fold change was inactive: 0.001.
Still for that read-out and setting: under FAXDC2 (UniProt Q96IV6) stands inactive: 0.056; under FNDC3A (UniProt Q9Y2H6), inactive: -0.451.
For the target FEZ2 (UniProt Q9UHY8), the log2 fold change was inactive: 0.096.
The same measure, in the same setting: to FHL1 isoform 4 (UniProt Q13642) belongs inactive: 0.57; to FGFR1OP2 isoform 2 (UniProt Q9NVK5), inactive: 0.188.
Regarding FCF1 (UniProt Q9Y324), the log2 fold change is inactive: -0.099.
The same measure, in the same setting: to FOS (UniProt P01100) belongs inactive: 0; to FANCE (UniProt Q9HB96), inactive: 0.045; to FBH1 isoform 2 (UniProt Q8NFZ0), inactive: 0.031.
Regarding FOXJ2 (UniProt Q9P0K8), the log2 fold change is inactive: -0.062.

Compound in a further test: CN1CCC(CNc2ccc3ncc(-c4cccc(OC(F)(F)F)c4)n3n2)CC1
The test is described as above. Summed up:
as §1
With FKBP10 (UniProt Q96AY3), the log2 fold change is inactive: -0.009.
Regarding FER isoform 3 (UniProt P16591), the log2 fold change was inactive: 0.164.
On the same count and under the same terms, under FOSL1 (UniProt P15407) stands inactive: 0.102; under FANCF (UniProt Q9NPI8), inactive: -0.087.
With FBXO11 isoform 5 (UniProt Q86XK2), the log2 fold change was inactive: -0.067.
Take FAT1 (UniProt Q14517): the log2 fold change is inactive: -0.036.
The same measure, in the same setting: under FAXDC2 (UniProt Q96IV6) stands inactive: 0.204.
The same measure, in the same setting: to FNDC3A (UniProt Q9Y2H6) belongs inactive: 0.138.
As to FEZ2 (UniProt Q9UHY8), the log2 fold change is inactive: 0.121.
Take FHL1 isoform 4 (UniProt Q13642): the log2 fold change was inactive: 0.065.
Same read-out and setting: to FGFR1OP2 isoform 2 (UniProt Q9NVK5) belongs inactive: -0.104.
As for FCF1 (UniProt Q9Y324), the log2 fold change is inactive: 0.174.
On the same count and under the same terms, to FOS (UniProt P01100) belongs inactive: 0.166; to FANCE (UniProt Q9HB96), inactive: -0.175.
The same measure, in the same setting: to FBH1 isoform 2 (UniProt Q8NFZ0) belongs inactive: -0.035; to FOXJ2 (UniProt Q9P0K8), inactive: -0.071.

Compound in another test: CN1CCN(CCOc2cc(OC3CCOCC3)c3c(Nc4c(Cl)ccc5c4OCO5)ncnc3c2)CC1 [saracatinib]
Described as above. Summed up: as §1
In the case of FILIP1L (UniProt Q4L180), the log2 fold change is inactive: -0.04.
Same read-out and setting: under FKBP10 (UniProt Q96AY3) stands inactive: -0.03; under FOSL1 (UniProt P15407), inactive: -0.012; under FBXO11 isoform 5 (UniProt Q86XK2), inactive: -0.016.
On to FMR1 isoform 9 (UniProt Q06787), for which the log2 fold change is inactive: -0.233.
On to FAXDC2 (UniProt Q96IV6), for which the log2 fold change was inactive: -0.042.
On the same count and under the same terms, under FEM1C (UniProt Q96JP0) stands inactive: 0.095; under FCF1 (UniProt Q9Y324), inactive: -0.161.
For the target FMNL2 isoform 3 (UniProt Q96PY5), the log2 fold change was inactive: 0.04.
As to FANCE (UniProt Q9HB96), the log2 fold change was inactive: 0.145.
As to FCHSD2 (UniProt O94868), the log2 fold change was inactive: 0.104.
Regarding FOXJ2 (UniProt Q9P0K8), the log2 fold change was inactive: -0.101.
Take FLYWCH1 isoform 3 (UniProt Q4VC44): the log2 fold change is inactive: 0.207.

These data come from the supplement of paper PMC10849652.
